The test system of data set [1] is T1, hUPF1 (full-length) (Homo sapiens).
T1 sequence (looked up): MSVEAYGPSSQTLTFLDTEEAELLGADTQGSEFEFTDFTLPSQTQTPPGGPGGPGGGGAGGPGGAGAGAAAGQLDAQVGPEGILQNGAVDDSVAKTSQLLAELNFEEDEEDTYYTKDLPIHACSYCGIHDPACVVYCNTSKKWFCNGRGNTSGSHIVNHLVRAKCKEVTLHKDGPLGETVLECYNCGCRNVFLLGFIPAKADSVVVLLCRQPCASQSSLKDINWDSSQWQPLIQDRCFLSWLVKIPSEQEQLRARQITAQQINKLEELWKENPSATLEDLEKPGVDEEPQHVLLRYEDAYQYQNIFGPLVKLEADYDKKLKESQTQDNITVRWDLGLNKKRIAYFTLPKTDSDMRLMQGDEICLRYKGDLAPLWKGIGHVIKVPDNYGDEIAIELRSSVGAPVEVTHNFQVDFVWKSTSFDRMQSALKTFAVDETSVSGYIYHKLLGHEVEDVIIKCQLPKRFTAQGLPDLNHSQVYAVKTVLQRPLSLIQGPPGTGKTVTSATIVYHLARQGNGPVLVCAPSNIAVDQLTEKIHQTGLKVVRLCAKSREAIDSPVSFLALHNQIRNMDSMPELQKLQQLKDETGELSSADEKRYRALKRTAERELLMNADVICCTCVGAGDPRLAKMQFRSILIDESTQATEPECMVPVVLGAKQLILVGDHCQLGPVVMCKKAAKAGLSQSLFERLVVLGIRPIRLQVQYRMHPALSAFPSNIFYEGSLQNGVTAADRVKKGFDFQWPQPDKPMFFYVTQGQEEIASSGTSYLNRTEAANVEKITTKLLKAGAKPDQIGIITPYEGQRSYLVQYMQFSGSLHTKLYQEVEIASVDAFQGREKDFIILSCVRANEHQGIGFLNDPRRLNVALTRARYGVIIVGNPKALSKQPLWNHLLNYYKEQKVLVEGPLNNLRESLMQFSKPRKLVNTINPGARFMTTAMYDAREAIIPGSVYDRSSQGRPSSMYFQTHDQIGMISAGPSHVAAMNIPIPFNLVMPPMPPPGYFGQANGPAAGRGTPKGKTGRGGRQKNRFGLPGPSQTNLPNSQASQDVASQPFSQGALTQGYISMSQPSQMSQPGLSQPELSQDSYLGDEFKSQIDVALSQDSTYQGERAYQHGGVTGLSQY
Kind of data set: EMSA. The conditions noted are these: 25 mM HEPES-NaOH pH 7.2, […] NaCl, 2 mM DTT, 1 mg/ml acetylated BSA, 0.1% NP40, 20 min, EMSA 20 C, MST 22 C (20 nM DNA), no nucleotide cofactor or Mg2+ unless stated, recombinant protein, residues 1-1118.

The test system is the same in data set [2]. Kind of data set: competition with a labelled probe. Conditions: vs 0.25 nM 32P-DNA35, 10 nM hUPF1, >>1000, little competition; 25 mM HEPES-NaOH pH 7.2, […] NaCl, 2 mM DTT, 1 mg/ml acetylated BSA, 0.1% NP40, 20 min; EMSA 20 C, MST 22 C (20 nM DNA); no nucleotide cofactor or Mg2+ unless stated; recombinant protein; residues 1-1118; label: 32P (EMSA), none as competitor; single-stranded DNA.

Where [3] appears, read: ATP/MgCl2, binding substantially reduced, label: 5' 32P (EMSA), none as competitor, single-stranded DNA.
Setting [4] is: 0.2-5 nM hUPF1, label: 32P, single-stranded DNA.

For some assays here: A negative result means that nothing was seen under these conditions. Protein sequences can lack the tags named with them. For some assays here: A weaker result is weaker than the reference pair of the same experiment. For some assays here: The exact form of at least one protein or probe is not confirmed. For some assays here: At least one verdict rests on a figure or table, not on a statement of the authors.

In publication PMC5499549, “DNA substrate recognition and processing by the full-length human UPF1 helicase” one finds binding result and IC50 data, which are given here for ten sequences.

What is called IC50 is the concentration needed to halve the response being measured. For the sequence “AAAAAAAAAAAAAAAAAAAAAAAAAAAAAAAAAAA [d(A)35]”, the binding result in data set [1] (barely detectable, label: 32P (EMSA), none as competitor, single-stranded DNA) was “binds more weakly”. Moreover, in data set [2], the IC50 is over 1000 nM. As for “ACGTTCTAGAGCGCGCGCCACCCAGCAAACAACACTGGGGGAGGGGGACGGTGAAGGCCAAGTTCCCCGCCAGTCGGCTTAGATCTAGATGCA / TGCATCTAGATCTAAGCCGACTGGCGGGGAACTTGGCCTTCACCGTCCCCCTCCCCCAGTGTTGTTTGCTGGGTGGCGCGCGCTCTAGAACGT / GGAAGCGGTAGGGGGAGGGGG [TripT0 triplex]”, the binding result in data set [1] (10 mM MgCl2, up to 40 nM hUPF1, label: 5' 32P on third strand, folded or branched DNA) was “no binding”.

In the case of “CACAAGCAACCAATCGGTTCGACACTCATACTGGC (double strand) [dsDNA35]”, the binding result in data set [1] (minimal, similar to G4 DNA, label: 32P) is “binds more weakly”. For the sequence “CACAAGCAACCAATCGGTTCGACACTCATACTGGC [DNA35]”, the binding result in data set [1] (setting [3]) is recorded as “binds more weakly”. Regarding “GGAAGCGGTAGGGGGAGGGGG [triplex forming oligonucleotide (21 nt)]”, the binding result in data set [1] (10 mM MgCl2, minor free fraction in TripT0 sample, label: 5' 32P, single-stranded DNA) is “no binding”. In the case of “TTTTTGGGGTTTTGGGG [ss precursor of G4 DNA]”, in data set [1] (equivalent to d(T)18, label: 32P, single-stranded DNA), the binding result is listed as “binds”. With TTTTTTTTTTTTTTT [d(T)15], the binding result in data set [1] (setting [4]) is “binds more weakly”. The same measure, in the same setting: the value for TTTTTTTTTTTTTTTTTTTTTTTTT [d(T)25] was “binds”.

For the sequence “TTTTTTTTTTTTTTTTTTTTTTTTTTTTTTTTTTT [d(T)35]”, the binding result in data set [1] (setting [3]) is listed as “binds more weakly”. For the sequence “UUUUUUUUUUUUUUUUUUUUUUUUUUUUUUUUUUU [(U)35]”, the binding result in data set [1] (ATP/MgCl2, binding substantially reduced, label: 32P (EMSA), none as competitor) is listed as “binds more weakly”.
